# This is one part of the list.
# By UniProt entry, the sequences of proteins in these tests, tags left out. Where a name states a change or a piece, a line headed by the entry shows the natural chain unless it says otherwise.
# UniProt Q9UK97: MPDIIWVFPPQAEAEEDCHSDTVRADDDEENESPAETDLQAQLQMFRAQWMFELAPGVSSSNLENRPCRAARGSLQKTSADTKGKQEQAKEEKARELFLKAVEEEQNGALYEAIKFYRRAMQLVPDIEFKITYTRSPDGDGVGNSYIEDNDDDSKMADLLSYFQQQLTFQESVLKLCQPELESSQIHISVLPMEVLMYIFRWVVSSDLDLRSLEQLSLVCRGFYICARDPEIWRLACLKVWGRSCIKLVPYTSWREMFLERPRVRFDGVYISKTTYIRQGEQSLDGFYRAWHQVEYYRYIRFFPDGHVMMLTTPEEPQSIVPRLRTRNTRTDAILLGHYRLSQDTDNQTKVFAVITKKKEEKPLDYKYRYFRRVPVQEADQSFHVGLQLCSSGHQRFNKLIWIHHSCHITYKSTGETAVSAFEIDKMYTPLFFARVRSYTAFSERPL
# UniProt P02675: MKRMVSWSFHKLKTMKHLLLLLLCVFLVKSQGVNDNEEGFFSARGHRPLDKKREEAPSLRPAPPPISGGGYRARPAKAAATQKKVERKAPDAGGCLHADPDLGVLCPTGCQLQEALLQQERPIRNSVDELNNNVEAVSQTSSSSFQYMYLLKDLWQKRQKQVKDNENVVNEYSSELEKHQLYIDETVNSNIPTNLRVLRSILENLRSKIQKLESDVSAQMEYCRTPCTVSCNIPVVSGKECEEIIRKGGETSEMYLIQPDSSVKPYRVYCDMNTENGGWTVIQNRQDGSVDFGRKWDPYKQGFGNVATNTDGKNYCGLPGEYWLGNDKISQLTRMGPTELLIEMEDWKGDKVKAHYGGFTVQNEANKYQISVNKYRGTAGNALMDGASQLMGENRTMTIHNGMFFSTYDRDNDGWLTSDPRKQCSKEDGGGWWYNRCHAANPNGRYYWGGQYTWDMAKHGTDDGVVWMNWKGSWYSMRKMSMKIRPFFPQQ
# UniProt Q86WN1: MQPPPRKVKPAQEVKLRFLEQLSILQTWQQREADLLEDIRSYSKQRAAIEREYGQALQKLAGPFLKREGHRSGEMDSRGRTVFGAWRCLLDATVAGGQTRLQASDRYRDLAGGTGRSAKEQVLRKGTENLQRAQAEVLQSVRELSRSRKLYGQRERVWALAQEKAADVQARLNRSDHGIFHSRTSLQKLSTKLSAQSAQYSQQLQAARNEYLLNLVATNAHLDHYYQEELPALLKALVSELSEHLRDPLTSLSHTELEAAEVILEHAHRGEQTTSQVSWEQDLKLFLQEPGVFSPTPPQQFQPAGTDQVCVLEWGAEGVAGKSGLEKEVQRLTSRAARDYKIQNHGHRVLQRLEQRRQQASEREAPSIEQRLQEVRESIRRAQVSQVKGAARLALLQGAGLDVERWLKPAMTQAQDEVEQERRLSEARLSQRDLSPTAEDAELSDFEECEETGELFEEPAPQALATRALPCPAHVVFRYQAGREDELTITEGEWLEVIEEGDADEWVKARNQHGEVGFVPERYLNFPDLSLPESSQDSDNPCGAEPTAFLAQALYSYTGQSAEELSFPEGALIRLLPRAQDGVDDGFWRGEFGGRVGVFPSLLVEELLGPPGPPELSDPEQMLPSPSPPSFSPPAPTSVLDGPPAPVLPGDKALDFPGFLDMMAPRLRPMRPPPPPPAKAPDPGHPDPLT
# UniProt Q9Y613: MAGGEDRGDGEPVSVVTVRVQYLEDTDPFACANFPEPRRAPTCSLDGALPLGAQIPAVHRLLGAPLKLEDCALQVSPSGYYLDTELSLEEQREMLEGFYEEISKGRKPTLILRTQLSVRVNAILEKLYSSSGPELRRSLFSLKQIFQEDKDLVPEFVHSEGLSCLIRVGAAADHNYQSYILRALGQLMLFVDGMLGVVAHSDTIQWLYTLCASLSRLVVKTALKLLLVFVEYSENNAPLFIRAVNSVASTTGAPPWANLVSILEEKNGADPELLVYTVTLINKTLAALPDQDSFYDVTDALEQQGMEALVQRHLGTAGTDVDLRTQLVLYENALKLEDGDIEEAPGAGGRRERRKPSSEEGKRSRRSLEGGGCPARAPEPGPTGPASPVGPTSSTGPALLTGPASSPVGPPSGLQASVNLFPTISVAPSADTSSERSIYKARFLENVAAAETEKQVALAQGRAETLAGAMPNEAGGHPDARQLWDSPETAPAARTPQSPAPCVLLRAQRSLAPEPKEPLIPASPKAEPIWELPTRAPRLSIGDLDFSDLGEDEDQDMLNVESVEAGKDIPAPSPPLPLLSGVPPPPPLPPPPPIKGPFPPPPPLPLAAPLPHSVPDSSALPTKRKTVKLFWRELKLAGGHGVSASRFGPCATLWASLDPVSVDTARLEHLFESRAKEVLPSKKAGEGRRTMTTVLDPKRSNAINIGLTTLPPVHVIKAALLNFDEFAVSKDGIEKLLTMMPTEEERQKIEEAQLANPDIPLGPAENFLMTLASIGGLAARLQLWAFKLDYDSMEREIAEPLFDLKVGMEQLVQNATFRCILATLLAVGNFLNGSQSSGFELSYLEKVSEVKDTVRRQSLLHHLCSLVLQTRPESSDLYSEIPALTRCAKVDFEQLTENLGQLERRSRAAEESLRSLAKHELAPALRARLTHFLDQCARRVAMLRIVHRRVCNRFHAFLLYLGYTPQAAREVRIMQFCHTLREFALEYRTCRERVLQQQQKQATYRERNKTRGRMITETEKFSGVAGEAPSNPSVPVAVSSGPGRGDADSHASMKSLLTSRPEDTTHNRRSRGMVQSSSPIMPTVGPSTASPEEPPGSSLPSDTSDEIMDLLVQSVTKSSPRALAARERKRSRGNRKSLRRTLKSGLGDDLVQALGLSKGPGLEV
# UniProt Q6PIJ6: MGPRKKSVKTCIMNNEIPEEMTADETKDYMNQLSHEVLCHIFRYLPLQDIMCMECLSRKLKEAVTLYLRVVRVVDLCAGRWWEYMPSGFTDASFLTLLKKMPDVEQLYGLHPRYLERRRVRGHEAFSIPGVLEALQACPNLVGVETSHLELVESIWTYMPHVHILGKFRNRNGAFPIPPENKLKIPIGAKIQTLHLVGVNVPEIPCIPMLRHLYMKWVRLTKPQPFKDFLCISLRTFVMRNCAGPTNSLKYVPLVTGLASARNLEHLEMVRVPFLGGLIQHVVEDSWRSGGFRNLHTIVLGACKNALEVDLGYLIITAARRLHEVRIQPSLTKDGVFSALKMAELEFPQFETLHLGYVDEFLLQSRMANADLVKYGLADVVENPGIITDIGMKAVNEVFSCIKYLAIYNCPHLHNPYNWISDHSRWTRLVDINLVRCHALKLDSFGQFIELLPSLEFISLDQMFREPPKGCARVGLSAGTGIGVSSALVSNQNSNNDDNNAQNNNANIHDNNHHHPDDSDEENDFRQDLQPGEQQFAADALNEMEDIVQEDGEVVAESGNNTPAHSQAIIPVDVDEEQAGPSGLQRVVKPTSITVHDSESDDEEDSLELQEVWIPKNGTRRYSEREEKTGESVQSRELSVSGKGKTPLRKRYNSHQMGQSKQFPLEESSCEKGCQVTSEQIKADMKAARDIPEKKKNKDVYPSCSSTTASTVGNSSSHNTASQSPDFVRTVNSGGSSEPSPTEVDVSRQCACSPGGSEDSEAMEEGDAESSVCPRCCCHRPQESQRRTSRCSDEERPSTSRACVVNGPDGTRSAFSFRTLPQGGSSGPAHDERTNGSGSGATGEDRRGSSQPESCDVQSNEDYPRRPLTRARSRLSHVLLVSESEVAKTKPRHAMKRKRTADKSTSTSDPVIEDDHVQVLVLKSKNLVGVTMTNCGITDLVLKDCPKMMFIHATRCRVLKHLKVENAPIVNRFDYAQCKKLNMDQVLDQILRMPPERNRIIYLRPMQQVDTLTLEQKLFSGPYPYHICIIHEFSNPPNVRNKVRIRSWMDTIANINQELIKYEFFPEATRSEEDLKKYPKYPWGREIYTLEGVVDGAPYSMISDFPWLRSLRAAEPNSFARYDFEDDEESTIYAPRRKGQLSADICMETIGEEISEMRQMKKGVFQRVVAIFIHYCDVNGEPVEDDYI
# UniProt P14324: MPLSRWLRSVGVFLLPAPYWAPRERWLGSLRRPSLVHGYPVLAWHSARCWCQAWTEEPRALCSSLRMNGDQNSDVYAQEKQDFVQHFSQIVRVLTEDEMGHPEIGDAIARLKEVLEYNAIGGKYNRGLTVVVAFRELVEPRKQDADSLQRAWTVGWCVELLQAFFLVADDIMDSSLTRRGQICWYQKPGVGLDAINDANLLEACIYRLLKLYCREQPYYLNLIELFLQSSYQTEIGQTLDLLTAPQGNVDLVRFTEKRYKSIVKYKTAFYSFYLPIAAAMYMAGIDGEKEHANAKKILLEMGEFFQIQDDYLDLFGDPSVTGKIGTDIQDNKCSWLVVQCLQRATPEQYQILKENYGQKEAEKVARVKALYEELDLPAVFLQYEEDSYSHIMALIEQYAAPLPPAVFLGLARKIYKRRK
# UniProt P37268: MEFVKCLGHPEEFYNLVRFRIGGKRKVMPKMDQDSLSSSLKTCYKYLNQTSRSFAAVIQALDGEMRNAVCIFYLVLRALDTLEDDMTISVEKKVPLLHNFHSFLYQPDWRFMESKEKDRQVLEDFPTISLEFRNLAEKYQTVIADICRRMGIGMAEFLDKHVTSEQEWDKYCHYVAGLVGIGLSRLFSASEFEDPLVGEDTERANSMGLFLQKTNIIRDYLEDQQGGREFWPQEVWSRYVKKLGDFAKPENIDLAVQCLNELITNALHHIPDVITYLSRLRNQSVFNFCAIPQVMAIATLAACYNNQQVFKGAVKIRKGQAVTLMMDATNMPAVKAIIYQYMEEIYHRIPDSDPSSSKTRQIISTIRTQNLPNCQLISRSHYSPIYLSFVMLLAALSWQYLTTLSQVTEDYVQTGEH
# UniProt Q9UK99: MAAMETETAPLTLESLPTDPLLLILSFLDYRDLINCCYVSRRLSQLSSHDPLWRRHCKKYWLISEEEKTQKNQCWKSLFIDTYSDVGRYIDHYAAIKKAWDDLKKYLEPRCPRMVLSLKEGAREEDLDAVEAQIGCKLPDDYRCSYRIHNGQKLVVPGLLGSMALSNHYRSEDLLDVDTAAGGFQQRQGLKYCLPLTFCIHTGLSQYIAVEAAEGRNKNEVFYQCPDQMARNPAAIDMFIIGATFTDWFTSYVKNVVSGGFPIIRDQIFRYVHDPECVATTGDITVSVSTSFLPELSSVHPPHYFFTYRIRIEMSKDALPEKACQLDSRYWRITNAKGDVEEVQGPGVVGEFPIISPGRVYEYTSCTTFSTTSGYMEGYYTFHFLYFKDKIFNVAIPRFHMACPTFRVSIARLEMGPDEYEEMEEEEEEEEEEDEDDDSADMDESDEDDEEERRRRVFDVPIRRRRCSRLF
# UniProt P16591: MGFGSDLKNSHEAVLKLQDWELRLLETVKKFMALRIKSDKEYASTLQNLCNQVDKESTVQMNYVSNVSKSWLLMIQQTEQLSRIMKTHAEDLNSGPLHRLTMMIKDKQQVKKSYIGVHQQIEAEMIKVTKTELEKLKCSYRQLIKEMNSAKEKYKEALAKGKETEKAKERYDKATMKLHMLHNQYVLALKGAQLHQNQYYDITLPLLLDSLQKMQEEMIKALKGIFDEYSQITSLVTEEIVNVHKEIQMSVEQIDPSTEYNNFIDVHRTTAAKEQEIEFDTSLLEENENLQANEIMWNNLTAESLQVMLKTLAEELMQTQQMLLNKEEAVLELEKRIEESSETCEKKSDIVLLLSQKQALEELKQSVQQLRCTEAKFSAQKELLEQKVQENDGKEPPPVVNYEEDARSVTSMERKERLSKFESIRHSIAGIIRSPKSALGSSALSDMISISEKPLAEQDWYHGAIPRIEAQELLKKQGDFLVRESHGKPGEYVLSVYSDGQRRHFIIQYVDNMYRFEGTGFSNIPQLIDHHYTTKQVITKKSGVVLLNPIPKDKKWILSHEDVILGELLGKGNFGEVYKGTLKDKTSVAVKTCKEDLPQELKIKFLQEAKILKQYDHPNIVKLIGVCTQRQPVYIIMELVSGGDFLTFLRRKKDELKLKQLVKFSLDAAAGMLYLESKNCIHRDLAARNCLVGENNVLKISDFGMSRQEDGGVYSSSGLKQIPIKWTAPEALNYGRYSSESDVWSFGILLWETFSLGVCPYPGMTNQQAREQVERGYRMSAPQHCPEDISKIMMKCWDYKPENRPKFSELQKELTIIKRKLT
# UniProt Q9Y680: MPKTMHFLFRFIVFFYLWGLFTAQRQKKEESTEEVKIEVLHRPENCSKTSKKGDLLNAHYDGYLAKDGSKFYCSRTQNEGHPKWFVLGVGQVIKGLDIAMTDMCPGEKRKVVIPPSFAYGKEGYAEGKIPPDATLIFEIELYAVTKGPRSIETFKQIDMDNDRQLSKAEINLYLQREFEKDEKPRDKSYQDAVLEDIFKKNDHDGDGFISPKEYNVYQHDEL
# UniProt Q96KR6: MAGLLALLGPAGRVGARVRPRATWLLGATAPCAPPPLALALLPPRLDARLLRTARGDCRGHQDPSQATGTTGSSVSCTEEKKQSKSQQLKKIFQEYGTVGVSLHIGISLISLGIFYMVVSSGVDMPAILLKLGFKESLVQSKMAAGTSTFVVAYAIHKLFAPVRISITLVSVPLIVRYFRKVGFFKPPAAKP
# What was measured:
# Test in all cases: log2 fold change, soluble protein after heating vs DMSO (PISA); higher = thermal stabilisation; K562 cells, 10 uM, 30 min; active = over 0.2 and 3.5 SD of the protein, either way, in both replicates (recomputed)
# [1] = compound: CC[C@@H]1C(=O)N(C)c2cnc(Nc3ccc(C(=O)NC4CCN(C)CC4)cc3OC)nc2N1C1CCCC1
# Procedure, shortened: (§1)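 K562 cells at 2×10^6 cells/mL were given 10 μM compound for 30 min. Aliquots then went through 3 min of heating across 48°C-58°C, were pooled, and were extracted in PBS with 0.5% NP-40 at 4°C, and the supernatant after 21,000xg for 90 min was quantified by TMTpro 16plex LC-MS/MS with channel sums equalised. Thermal stability relative to control samples, from duplicates, is given as log2 fold change.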
# [2] = compound: CC[C@@H]1C(=O)N(C)c2cnc(Nc3ccc(C(=O)N[C@H]4CC[C@H](N5CCN(CC6CC6)CC5)CC4)cc3OC)nc2N1C(C)C [volasertib]
# Procedure, shortened: as §1
# [3] = compound: CC[C@H](C)N1C=C(C2=C(C=C(C=C21)C3=CN=C(C=C3)N4CCNCC4)C(=O)NCC5=C(C=C(NC5=O)C)C)C
# Procedure, shortened: as §1
# [4] = compound: CC[C@H](C)[C@@H](C(=O)N[C@@H]([C@@H](C)O)C(=O)N[C@@H](CC(C)C)C(=O)[C@]1(CO1)C)NC(=O)[C@H]([C@@H](C)CC)N(C)C(=O)C [epoxomicin]
# Procedure, shortened: as §1
# [5] = compound: CCn1cc(-c2ccnc3[nH]c(-c4cccc(CN(C)C)c4)cc23)c(-c2ccc(NC(=O)N(C)C)cc2)n1
# Procedure, shortened: as §1
# [6] = compound: CN(C)CC(=O)Nc1ccc2[nH]c(=O)c3ccccc3c2c1
# Procedure, shortened: as §1
# [7] = compound: CN1C2=C(C3=C1C(=O)N(N=C3)CC4=CC(=CC=C4)N)SC(=C2)S(=O)C
# Procedure, shortened: as §1
# [8] = compound: CN1CCC(CNc2ccc3ncc(-c4cccc(OC(F)(F)F)c4)n3n2)CC1
# Procedure, shortened: as §1
# [9] = compound: CN1CCN(CCOc2cc(OC3CCOCC3)c3c(Nc4c(Cl)ccc5c4OCO5)ncnc3c2)CC1 [saracatinib]
# Procedure, shortened: as §1
# [10] = compound: CN1CCN(c2nc(C3=C(c4c[nH]c5ccccc45)C(=O)NC3=O)c3ccccc3n2)CC1 [sotrastaurin]
# Procedure, shortened: as §1
# [11] = compound: CN1CCc2c(c3ccccc3n2Cc2ccc(C(=O)NO)cc2)C1 [Tubastatin A]
# Procedure, shortened: as §1
# [12] = compound: CNC(=O)C1=CC=CC=C1NC2=NC(=NC=C2Cl)NC3=C(C=C(C=C3)N4CCOCC4)OC
# Procedure, shortened: as §1
# [13] = compound: CNC(=O)c1ccc(Nc2ncc(C(F)(F)F)c(NCc3nccnc3N(C)S(C)(=O)=O)n2)cc1 [defactinib]
# Procedure, shortened: as §1
# [14] = compound: CNCc1ccc(-c2[nH]c3cc(F)cc4c3c2CCNC4=O)cc1 [rucaparib]
# Procedure, shortened: as §1
# [15] = compound: CNc1nc(-c2ccc3c(N)n[nH]c3c2)cc(N2C[C@@H](C(=O)NC3CCCCC3)CC[C@H]2C)n1
# Procedure, shortened: as §1
# [16] = compound: COC(=O)N[C@@H](C)CNc1nccc(-c2cn(C(C)C)nc2-c2cc(Cl)cc(NS(C)(=O)=O)c2F)n1 [encorafenib]
# Procedure, shortened: as §1
# [17] = compound: COC(=O)[C@H](CCSC)NC(=O)C1=C(C=C(C=C1)NC[C@H](CS)N)C2=CC=CC=C2
# Procedure, shortened: as §1
# [18] = compound: CCn1c(C(=O)N(C2CC2)C2CC2)cc2c3c(ncn3C)c(Nc3cc(C)n(C)n3)nc21
# Procedure, shortened: as §1
# [19] = compound: CN(CCOC1=CC=C(C=C1)C[C@H]2C(=O)NC(=O)S2)C3=CC=CC=N3 (racemic) [rosiglitazone]
# Procedure, shortened: as §1
# [20] = compound: CN1CC[C@H](c2c(O)cc(O)c3c(=O)cc(-c4ccccc4Cl)oc23)[C@H](O)C1 [alvocidib]
# Procedure, shortened: as §1
Target,log2 fold change [1],log2 fold change [2],log2 fold change [3],log2 fold change [4],log2 fold change [5],log2 fold change [6],log2 fold change [7],log2 fold change [8],log2 fold change [9],log2 fold change [10],log2 fold change [11],log2 fold change [12],log2 fold change [13],log2 fold change [14],log2 fold change [15],log2 fold change [16],log2 fold change [17],log2 fold change [18],log2 fold change [19],log2 fold change [20]
FBXO42 (UniProt Q6P3S6),inactive: 0.093,inactive: 0.011,inactive: 0.028,inactive: 0.056,inactive: 0.002,inactive: -0.019,inactive: 0.032,inactive: 0.021,inactive: -0.032,inactive: 0.051,inactive: 0,inactive: -0.067,inactive: -0.165,inactive: -0.073,inactive: 0.139,inactive: 0.03,inactive: 0.012,–,–,–
FBXO9 (UniProt Q9UK97),inactive: -0.17,active: -0.545,inactive: 0.06,–,inactive: 0.009,inactive: 0.097,inactive: 0.045,inactive: 0.203,inactive: -0.024,–,inactive: -0.003,inactive: 0.141,inactive: 0.052,inactive: 0.055,inactive: -0.014,inactive: 0.152,inactive: -0.037,–,–,–
FAM50A (UniProt Q14320),inactive: -0.158,active: -0.258,inactive: 0.06,inactive: 0.058,inactive: 0.053,inactive: 0.029,inactive: -0.07,inactive: -0.052,inactive: 0.11,inactive: -0.119,inactive: 0.029,inactive: 0.056,inactive: -0.203,inactive: -0.027,inactive: 0.08,inactive: 0.055,inactive: -0.023,–,–,–
FGB (UniProt P02675),inactive: 0.221,–,inactive: -0.136,–,inactive: -0.076,inactive: -0.124,–,inactive: -0.093,–,inactive: -0.027,inactive: -0.039,inactive: 0.081,inactive: 0.023,inactive: 0.019,–,inactive: -0.293,inactive: -0.051,inactive: -0.011,inactive: 0.089,inactive: -0.013
FCHSD1 (UniProt Q86WN1),inactive: 0.072,inactive: -0.12,–,inactive: -0.006,inactive: 0.004,–,inactive: -0.081,inactive: 0.008,inactive: -0.058,inactive: -0.015,–,inactive: 0.028,–,inactive: -0.322,inactive: 0.03,inactive: 0.074,–,inactive: -0.045,–,inactive: -0.187
FAM89A (UniProt Q96GI7),inactive: 0.08,–,inactive: -0.073,–,–,–,–,–,–,inactive: 0.042,–,inactive: 0.003,–,inactive: -0.003,–,inactive: 0.141,–,inactive: 0.034,inactive: -0.035,–
FHOD1 (UniProt Q9Y613),inactive: 0.127,inactive: -0.055,inactive: 0.075,inactive: -0.171,inactive: 0.093,inactive: -0.048,inactive: 0.372,inactive: -0.022,inactive: -0.143,inactive: -0.112,–,inactive: -0.027,inactive: -0.042,inactive: 0.442,inactive: 0.101,inactive: 0.187,inactive: 0.049,–,–,–
FANCA (UniProt O15360),inactive: 0.098,–,–,–,–,–,–,–,–,–,–,–,–,inactive: 0.062,–,inactive: -0.04,–,–,–,–
FAT2 (UniProt Q9NYQ8),inactive: 0.011,inactive: 0.029,–,inactive: -0.047,inactive: -0.023,inactive: -0.06,inactive: -0.023,inactive: 0.109,inactive: -0.243,–,inactive: 0.144,inactive: -0.206,inactive: 0.011,inactive: -0.007,inactive: 0.021,inactive: 0.094,inactive: 0.001,–,–,–
FBXO38 (UniProt Q6PIJ6),inactive: -0.104,inactive: -0.277,–,inactive: -0.136,–,inactive: 0.03,inactive: 0.043,–,inactive: -0.053,inactive: -0.021,inactive: 0.15,inactive: -0.058,inactive: -0.028,inactive: 0.021,inactive: 0.156,inactive: 0.091,inactive: -0.042,inactive: 0.062,inactive: -0.044,inactive: -0.154
FDPS (UniProt P14324),inactive: -0.059,inactive: -0.191,inactive: 0.075,inactive: 0.028,inactive: -0.277,inactive: 0.111,inactive: -0.034,active: -0.608,inactive: -0.151,inactive: -0.041,inactive: 0.062,inactive: -0.097,inactive: -0.032,inactive: -0.112,inactive: 0.237,inactive: 0.137,inactive: -0.118,–,–,–
FMR1 (UniProt Q06787),inactive: -0.068,inactive: -0.173,–,–,inactive: 0.088,–,–,inactive: 0.279,–,inactive: -0.105,–,inactive: 0.006,–,inactive: 0.19,–,inactive: 0.04,–,–,–,–
FDFT1 (UniProt P37268),inactive: -0.067,inactive: -0.151,inactive: -0.01,inactive: 0.06,inactive: -0.06,inactive: 0.003,inactive: -0.059,inactive: 0.067,inactive: 0.071,active: 0.604,inactive: 0.012,inactive: -0.002,inactive: -0.02,inactive: 0.004,inactive: -0.072,inactive: -0.032,inactive: -0.028,–,–,–
FBXO3 (UniProt Q9UK99),inactive: 0.041,inactive: 0.042,inactive: 0.052,inactive: 0.007,inactive: -0.074,inactive: -0.03,inactive: 0.023,inactive: -0.038,inactive: 0.029,inactive: 0.049,inactive: 0.157,inactive: -0.051,inactive: 0.072,inactive: 0.016,inactive: -0.076,inactive: 0.018,inactive: -0.005,–,–,–
FAM222B (UniProt Q8WU58),inactive: 0.017,inactive: -0.11,–,inactive: -0.139,–,–,inactive: -0.005,–,inactive: -0.01,–,inactive: 0.161,inactive: 0.013,–,inactive: -0.017,inactive: 0.031,inactive: -0.08,–,inactive: 0.045,–,–
FNDC3A (UniProt Q9Y2H6),inactive: 0.051,–,–,–,–,–,–,–,–,–,inactive: -0.027,–,–,inactive: 0.321,–,inactive: 0.059,–,–,–,–
FLT1 (UniProt P17948),inactive: 0.069,inactive: -0.015,–,–,–,inactive: -0.168,inactive: -0.071,–,inactive: 0.071,–,–,–,inactive: 0.033,inactive: -0.053,inactive: -0.127,inactive: -0.001,inactive: 0.081,–,–,–
FANCD2 isoform 1 (UniProt Q9BXW9),inactive: -0.229,inactive: -0.251,inactive: 0.118,inactive: -0.307,inactive: -0.055,inactive: 0.026,inactive: -0.009,inactive: -0.233,inactive: -0.038,inactive: 0.017,inactive: -0.053,inactive: -0.126,inactive: -0.145,inactive: 0.051,inactive: 0.028,inactive: 0.009,inactive: -0.029,–,–,–
FER (UniProt P16591),inactive: 0.057,–,–,–,inactive: 0.013,inactive: -0.016,–,inactive: -0.073,–,inactive: 0.14,–,inactive: -0.134,inactive: -0.061,inactive: -0.182,–,inactive: 0.096,inactive: 0.064,inactive: -0.479,–,–
FKBP7 (UniProt Q9Y680),inactive: 0.035,inactive: 0.021,inactive: 0.015,inactive: -0.04,inactive: 0.026,inactive: -0.042,inactive: -0.001,inactive: 0.191,inactive: 0.073,inactive: 0.056,inactive: -0.026,inactive: 0.008,inactive: -0.032,inactive: 0.01,inactive: 0.031,inactive: 0.044,inactive: 0.036,–,–,–
FAM210B (UniProt Q96KR6),inactive: -0.012,–,inactive: -0.026,inactive: -0.05,inactive: 0.016,inactive: 0.018,inactive: -0.06,inactive: 0.14,inactive: 0.063,inactive: 0.075,–,inactive: -0.008,inactive: -0.067,inactive: -0.004,inactive: -0.018,inactive: -0.067,inactive: -0.027,inactive: -0.019,inactive: -0.011,inactive: -0.041
FAM53B (UniProt Q14153),inactive: -0.011,–,–,inactive: 0.063,–,inactive: -0.008,inactive: -0.016,–,inactive: 0.032,–,–,inactive: -0.403,inactive: -0.087,inactive: -0.411,inactive: -0.024,inactive: -0.103,inactive: 0.125,inactive: -0.05,–,–

# An excerpt of these results, with bars between the fields:
Target | log2 fold change [1] | log2 fold change [2] | log2 fold change [3] | log2 fold change [4] | log2 fold change [5] | log2 fold change [6] | log2 fold change [7] | log2 fold change [8] | log2 fold change [9] | log2 fold change [10] | log2 fold change [11] | log2 fold change [12] | log2 fold change [13] | log2 fold change [14] | log2 fold change [15] | log2 fold change [16] | log2 fold change [17] | log2 fold change [18] | log2 fold change [19] | log2 fold change [20]
FGB (UniProt P02675) | inactive: 0.221 | – | inactive: -0.136 | – | inactive: -0.076 | inactive: -0.124 | – | inactive: -0.093 | – | inactive: -0.027 | inactive: -0.039 | inactive: 0.081 | inactive: 0.023 | inactive: 0.019 | – | inactive: -0.293 | inactive: -0.051 | inactive: -0.011 | inactive: 0.089 | inactive: -0.013
FCHSD1 (UniProt Q86WN1) | inactive: 0.072 | inactive: -0.12 | – | inactive: -0.006 | inactive: 0.004 | – | inactive: -0.081 | inactive: 0.008 | inactive: -0.058 | inactive: -0.015 | – | inactive: 0.028 | – | inactive: -0.322 | inactive: 0.03 | inactive: 0.074 | – | inactive: -0.045 | – | inactive: -0.187
FAM89A (UniProt Q96GI7) | inactive: 0.08 | – | inactive: -0.073 | – | – | – | – | – | – | inactive: 0.042 | – | inactive: 0.003 | – | inactive: -0.003 | – | inactive: 0.141 | – | inactive: 0.034 | inactive: -0.035 | –
FHOD1 (UniProt Q9Y613) | inactive: 0.127 | inactive: -0.055 | inactive: 0.075 | inactive: -0.171 | inactive: 0.093 | inactive: -0.048 | inactive: 0.372 | inactive: -0.022 | inactive: -0.143 | inactive: -0.112 | – | inactive: -0.027 | inactive: -0.042 | inactive: 0.442 | inactive: 0.101 | inactive: 0.187 | inactive: 0.049 | – | – | –
FANCA (UniProt O15360) | inactive: 0.098 | – | – | – | – | – | – | – | – | – | – | – | – | inactive: 0.062 | – | inactive: -0.04 | – | – | – | –

# Source: the supplement of paper PMC10849652
